Laboratory results reported in PMC9887883, “A family of C. elegans VASA homologs control Argonaute pathway specificity and promote transgenerational silencing”.
No constants are given. Whether binding was seen depends on the method and setting. Binding seen in cells or lysates may run through a third protein. These calls come from enrichment with a bait or labelling near it, and not all partners need be listed.

Molecular target: GLH-1(K391A) (C. elegans)
Assay: affinity purification with mass spectrometry; proteins that co-precipitate with wild-type GLH-1 or GLH-1(K391A) from worms, identified by mass spectrometry; how GLH-1 was precipitated is not told

B1: PRG-1 (protein, UniProt P90786 1-824)
chain: MASGSGRGRGRGSGSNNSGGKDQKYLGTIQPDLFIRQQGQSKTGSSGQPQKCFANFIPIEMTQSDYSIYQYHVEFEPTVDSKANREKMLRDNNVTDEIGHHFVFDGMILYLKEEWEQNQMIEVQHPIDRSLICIRFKQTNRFLVDDPQTINIFNTIIRRSFDALQLTQLGRNYFNWGDSRAVPDYNMSILPGYETAIRMYEENFMLCVENRFKMVREESMYILFHKELRSCQNNPQRVQEKMNEMYGGTTIITRYNNKLHRYTRLDYSISPLSEFVKDGQSITLKEYFKNQYGIEITVDDQPIIISEGKPKQPGEPPQVSYIVPELCFPTGLTDEMRKDFKMMKEIAKHTRMSPQQRLVESRKLIVDLSKNEKVMECFKYWGISLGQDLANVQARVLKSEPLQGKKTYEGKQAEWARGVKECGIYRGSNMTNWIVIGPGSGNSGLLSQKFIEEARRLGKILQVQLGEPMCVPIRGISPNDYLEGVKGAIKQVDGEDIHMLVVMLADDNKTRYDSLKKFLCVECPIPNQCVNLRTLAGKSKDGGENKNLGSIVLKIVLQMICKTGGALWKVNIPLKNTMIVGYDLYHDSTLKGKTVGACVSTTSNDFTQFYSQTRPHENPTQLGNNLTHFVRKALKQYYDSNDQTLPSRLILYRDGAGDGQIPYIKNTEVKLVRDACDAVTDKAAELSNKVQEKIKLAFIIVTKRVNMRILKQGSSLDNAINPQPGTVVDTTVTRPERMDFYLVPQFVNQGTVTPVSYNIIHDDTDLGPDKHQQLAFKLCHLYYNWQGTVRVPAPCQYAHKLAFLTAQSLHDDANGCLRDKLFFL
- binding: binds
